Experimental data from PMC10744335.
No constants are given. Whether binding was seen depends on the method and setting. Binding seen in cells or lysates may run through a third protein. Here binding means that the protein was enriched with, or labelled near, the bait; the list need not be complete. Where a sequence is shown, tags or fusion partners need not be part of it.

Molecular target: T1, GST-tagged bacterially expressed TIMAP protein (human) (UniProt Q96T49)
T1 sequence: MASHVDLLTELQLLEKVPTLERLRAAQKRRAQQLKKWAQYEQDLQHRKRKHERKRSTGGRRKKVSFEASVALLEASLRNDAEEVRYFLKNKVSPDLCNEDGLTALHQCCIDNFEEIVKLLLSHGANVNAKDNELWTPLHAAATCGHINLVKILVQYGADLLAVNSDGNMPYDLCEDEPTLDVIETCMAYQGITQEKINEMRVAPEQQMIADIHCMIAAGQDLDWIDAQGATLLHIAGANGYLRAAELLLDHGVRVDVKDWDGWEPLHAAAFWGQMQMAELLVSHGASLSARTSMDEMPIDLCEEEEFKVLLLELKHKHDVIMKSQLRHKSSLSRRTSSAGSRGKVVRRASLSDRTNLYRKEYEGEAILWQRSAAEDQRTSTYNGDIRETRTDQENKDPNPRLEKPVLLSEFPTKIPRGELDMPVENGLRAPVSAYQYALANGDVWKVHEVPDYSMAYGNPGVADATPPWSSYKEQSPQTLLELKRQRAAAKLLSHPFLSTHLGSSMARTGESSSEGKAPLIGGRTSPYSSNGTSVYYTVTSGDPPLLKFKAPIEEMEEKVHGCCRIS
Assay: affinity purification with mass spectrometry; GST–TIMAP pull-down from the nuclear fraction of undifferentiated SH-SY5Y cells; bound proteins separated on SDS-PAGE, MS/MS analysis; only the target purified

B1: 5-3 exoribonuclease 2 (protein, UniProt Q9H0D6 1-950)
chain: MGVPAFFRWLSRKYPSIIVNCVEEKPKECNGVKIPVDASKPNPNDVEFDNLYLDMNGIIHPCTHPEDKPAPKNEDEMMVAIFEYIDRLFSIVRPRRLLYMAIDGVAPRAKMNQQRSRRFRASKEGMEAAVEKQRVREEILAKGGFLPPEEIKERFDSNCITPGTEFMDNLAKCLRYYIADRLNNDPGWKNLTVILSDASAPGEGEHKIMDYIRRQRAQPNHDPNTHHCLCGADADLIMLGLATHEPNFTIIREEFKPNKPKPCGLCNQFGHEVKDCEGLPREKKGKHDELADSLPCAEGEFIFLRLNVLREYLERELTMASLPFTFDVERSIDDWVFMCFFVGNDFLPHLPSLEIRENAIDRLVNIYKNVVHKTGGYLTESGYVNLQRVQMIMLAVGEVEDSIFKKRKDDEDSFRRRQKEKRKRMKRDQPAFTPSGILTPHALGSRNSPGSQVASNPRQAAYEMRMQNNSSPSISPNTSFTSDGSPSPLGGIKRKAEDSDSEPEPEDNVRLWEAGWKQRYYKNKFDVDAADEKFRRKVVQSYVEGLCWVLRYYYQGCASWKWYYPFHYAPFASDFEGIADMPSDFEKGTKPFKPLEQLMGVFPAASGNFLPPSWRKLMSDPDSSIIDFYPEDFAIDLNGKKYAWQGVALLPFVDERRLRAALEEVYPDLTPEETRRNSLGGDVLFVGKHHPLHDFILELYQTGSTEPVEVPPELCHGIQGKFSLDEEAILPDQIVCSPVPMLRDLTQNTVVSINFKDPQFAEDYIFKAVMLPGARKPAAVLKPSDWEKSSNGRQWKPQLGFNRDRRPVHLDQAAFRTLGHVMPRGSGTGIYSNAAPPPVTYQGNLYRPLLRGQAQIPKLMSNMRPQDSWRGPPPLFQQQRFDRGVGAEPLLPWNRMLQTQNAAFQPNQYQMLAGPGGYPPRRDDRGGRQGYPREGRKYPLPPPSGRYNWN
With B1 the binding was “binds”.
